Experimental data published in PMC7641318.
No constants are given. Whether binding was seen depends on the method and setting.

Biological target: Histidine-tagged hADAR2-R2D E488Q for in vitro assays (human) (UniProt P78563)
Assay: SEC; analytical gel filtration, Superdex increase 5/150 GL; 25 μl of 10 μM protein without RNA; 20 mM Tris-HCl pH 8.0, 200 mM NaCl, 5% glycerol, 1 mM BME; both purified

Substance: Histidine-tagged hADAR2-R2D E488Q for in vitro assays (from UniProt P78563-2 214-701) (domain or fragment)
- binding: no binding (condition: without RNA (10 μM protein))
